{"source": "PubChem BioAssay AID1259254 (NCATS, 2017)", "test": "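Gene knock-downs that lead to re-replication, shown by excess G2 DNA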 (primary screen)", "cell system": "human HCT116 colorectal cancer cells", "reagent": "single siRNA against human genes", "duration": "3 days", "measured": "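Imaged Hoechst DNA stain sorts each cell into a cycle phase by DNA amount; per plate, G2 fraction set to 0% for non-targeting and 100% for GMNN siRNA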", "reading the numbers": "G2 robust z-score: higher = more G2 cells, more excess DNA replication", "call rule": "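Active siRNAs have a G2 robust z of 5 or more median absolute deviations over the median, which in these data means about 38% or higher of GMNN control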", "note": "Shown is an unselected part of about 59,000 reagents. Over the whole deposit, about 1,550 (2.6%) were called active. 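G2 share is only a proxy for re-replication; each gene was hit by three separate siRNAs, and active genes were retested.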 Reagents against one gene are numbered here. Not all columns of the deposit are shown. No sequences are given here. Not given: the amount of reagent."}
{"Gene": "RNF19B", "siRNA no.": 1, "G2 robust z-score": 1.91, "activity call": "inactive"}
{"Gene": "RNF19B", "siRNA no.": 2, "G2 robust z-score": 0.334, "activity call": "inactive"}
{"Gene": "RNF19B", "siRNA no.": 3, "G2 robust z-score": -0.287, "activity call": "inactive"}
{"Gene": "PEG3", "siRNA no.": 1, "G2 robust z-score": -0.282, "activity call": "inactive"}
{"Gene": "PEG3", "siRNA no.": 2, "G2 robust z-score": 1.47, "activity call": "inactive"}
{"Gene": "PEG3", "siRNA no.": 3, "G2 robust z-score": 0.216, "activity call": "inactive"}
{"Gene": "TOX3", "siRNA no.": 1, "G2 robust z-score": -0.0863, "activity call": "inactive"}
{"Gene": "TOX3", "siRNA no.": 2, "G2 robust z-score": 1.21, "activity call": "inactive"}
{"Gene": "TOX3", "siRNA no.": 3, "G2 robust z-score": -1.13, "activity call": "inactive"}
{"Gene": "ARL3", "siRNA no.": 1, "G2 robust z-score": 5.02, "activity call": "active"}
{"Gene": "ARL3", "siRNA no.": 2, "G2 robust z-score": 3.69, "activity call": "inactive"}
{"Gene": "ARL3", "siRNA no.": 3, "G2 robust z-score": 0.325, "activity call": "inactive"}

2 entries from above, reformatted:
{"Gene":"RNF19B","siRNA no.":1,"G2 robust z-score":1.91,"activity call":"inactive"}
{"Gene":"RNF19B","siRNA no.":2,"G2 robust z-score":0.334,"activity call":"inactive"}

The list goes on.
{"Gene": "GALT", "siRNA no.": 1, "G2 robust z-score": 6.65, "activity call": "active"}
{"Gene": "GALT", "siRNA no.": 2, "G2 robust z-score": -1.14, "activity call": "inactive"}
{"Gene": "GALT", "siRNA no.": 3, "G2 robust z-score": -0.289, "activity call": "inactive"}
{"Gene": "MPZL2", "siRNA no.": 1, "G2 robust z-score": 3.58, "activity call": "inactive"}
{"Gene": "MPZL2", "siRNA no.": 2, "G2 robust z-score": -0.851, "activity call": "inactive"}
{"Gene": "MPZL2", "siRNA no.": 3, "G2 robust z-score": 0.733, "activity call": "inactive"}
